PubChem BioAssay AID651804 (National Center for Advancing Translational Sciences (NCATS), 2012)
Screen size: about 1,200 compounds; about 20 (2%) were called active. Inconclusive results (about 23%) are left out. The call rests on the fitted dose curve; in most records, active means well fitted inhibition curve with a large enough effect; inconclusive means small, poorly fitted or top-dose-only effect; inactive means no such curve, though single readings can be large or run the other way. The list shows a part of the results.

Sequences of proteins named here, by UniProt entry; tags and fusion partners are left off. A change or cut given only in a name is not applied to a line headed by its entry.
UniProt P11308: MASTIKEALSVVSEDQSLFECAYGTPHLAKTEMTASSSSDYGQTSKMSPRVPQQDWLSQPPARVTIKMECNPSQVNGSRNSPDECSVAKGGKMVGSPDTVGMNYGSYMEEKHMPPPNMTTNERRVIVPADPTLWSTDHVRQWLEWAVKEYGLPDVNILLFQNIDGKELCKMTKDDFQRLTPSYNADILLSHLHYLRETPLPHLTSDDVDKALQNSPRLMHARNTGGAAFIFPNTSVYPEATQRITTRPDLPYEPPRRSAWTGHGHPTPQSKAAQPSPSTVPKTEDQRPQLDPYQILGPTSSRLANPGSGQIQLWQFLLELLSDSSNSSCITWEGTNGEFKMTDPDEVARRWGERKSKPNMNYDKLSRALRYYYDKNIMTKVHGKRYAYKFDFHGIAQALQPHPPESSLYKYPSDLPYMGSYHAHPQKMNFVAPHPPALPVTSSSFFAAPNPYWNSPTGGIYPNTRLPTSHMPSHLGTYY

Biological target: Transcriptional regulator ERG (Homo sapiens) (UniProt P11308)
Experiment: qHTS for Small Molecule Inhibitors of the ERG Ets/DNA interaction: HTRF assay against cherry picks
Conditions: His-ERG Ets domain with biotin-DNA; series mostly up to 154 µM; activity change, negative = inhibition: at the top concentration
Method in brief: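 Compounds were incubated 10 min at RT with ERG Ets domain and biotinylated DNA (each added as 200 nM solution) in pH 7.5 Tris/KCl/EDTA/DTT buffer. Binding was read as FRET (ex 320, em 615 and 665 nm) between anti-His donor and streptavidin acceptor.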
Potency means the concentration at half of the fitted maximal effect.

SMILES	activity change, negative = inhibition	Potency
COc1ccc(C(c2c(C)n(C)n(-c3ccccc3)c2=O)c2c(C)n(C)n(-c3ccccc3)c2=O)c(OC)c1OC	inactive: -25.1%	–
CN(C)c1nc2n(c(=S)n1)CCS2	inactive: -23.1%	–
COc1ccccc1C/C(N)=N/OC(=O)COc1ccc(C)cc1C	inactive: -9.71%	–
O=C(COc1ccc(F)cc1)Nc1nnc(-c2ccncc2)s1	inactive: -1.91%	–
CC(=O)Nc1ccc(NC(=O)Cn2c(=O)n(-c3ccccc3)c(=O)c3oc4ccccc4c32)cc1	inactive: -10.4%	–
NC(=O)Nc1ccc(C(=O)OCC(=O)NC2CCCc3ccccc32)cc1 (centres undefined)	inactive: -7.06%	–
COc1ccc(NC(=O)c2ccc(NC(=O)c3nc4nccc(C)n4n3)cc2)cc1	inactive: -29%	–
C/C(=N\NC(=O)c1ccc(CSc2nc(C)cc(C)n2)cc1)c1ccco1	inactive: -18.3%	–
C#CCn1c(CCNC(=O)c2ccco2)nc2ccccc21	inactive: -16.9%	–
Cc1ccccc1OCc1nnc(SCC(=O)Nc2ccc(N3CCOCC3)c(Cl)c2)n1C	inactive: -29.5%	–
CC(=O)N1CCN(c2nnc(-c3ccccc3)c3ccccc23)CC1	inactive: 2.55%	–
COCCNC(=O)CSc1nc2ccccc2c(=O)n1-c1cccc(OC)c1	inactive: -25.3%	–
Fc1cccc(NC(=S)N2CCN(c3ccccn3)CC2)c1	inactive: -15%	–
CCn1ccc2c(OCC(=O)Nc3ccc(C(C)=O)cc3)cccc2c1=O	inactive: -14.2%	–
CCN1CCN(CCCNC(=O)C2CCN(c3nnc(-n4cccc4)s3)CC2)CC1	inactive: -26.9%	–
CCC(Sc1nccn1C)C(=O)Nc1ccc(Cl)cn1 (centres undefined)	inactive: 5.25%	–
C/C(=N\NC(=O)c1cc(-c2ccc(Cl)s2)[nH]n1)c1ccncc1	inactive: -18.7%	–
COc1ccc(CNC(=O)c2cccnc2SC)cc1OC	inactive: -28.2%	–
COc1ccc(-c2nc3ccccc3c(=O)[nH]2)cc1	inactive: -7.06%	–
CC[C@]12c3[nH]c4ccccc4c3CCN1C(=O)C(CC(=O)NCc1cccc(C(F)(F)F)c1)C[C@@H]2C(=O)N1CCN(C(=O)C2CC2)CC1 (some centres undefined)	inactive: -22.7%	–
Cn1c(CNC(=O)CNC(=O)c2ccc(C(C)(C)C)cc2)cc(=O)n(C)c1=O	inactive: 10.8%	–
Cc1ccc(S(=O)(=O)NC2(C(F)(F)F)C(=O)Nc3c2c(=O)[nH]c(=O)n3-c2ccccc2)cc1 (centres undefined)	inactive: -24.5%	–
CCCC1OC23CCCCC2C(C#N)(C#N)C1(C#N)C(=N)O3 (centres undefined)	inactive: -12.7%	–

An excerpt of these results, with each value named:
CC[C@]12c3[nH]c4ccccc4c3CCN1C(=O)C(CC(=O)NCc1cccc(C(F)(F)F)c1)C[C@@H]2C(=O)N1CCN(C(=O)C2CC2)CC1 (some centres undefined)
  activity change, negative = inhibition: inactive: -22.7%
Cn1c(CNC(=O)CNC(=O)c2ccc(C(C)(C)C)cc2)cc(=O)n(C)c1=O
  activity change, negative = inhibition: inactive: 10.8%
Cc1ccc(S(=O)(=O)NC2(C(F)(F)F)C(=O)Nc3c2c(=O)[nH]c(=O)n3-c2ccccc2)cc1 (centres undefined)
  activity change, negative = inhibition: inactive: -24.5%
CCCC1OC23CCCCC2C(C#N)(C#N)C1(C#N)C(=N)O3 (centres undefined)
  activity change, negative = inhibition: inactive: -12.7%

Next records

SMILES	activity change, negative = inhibition	Potency
Cc1ccc(NC(=O)COC(=O)CCc2ccccc2)cc1S(=O)(=O)N1CCOCC1	inactive: 6.05%	–
Cc1onc(C(=O)NCc2ccccn2)c1[N+](=O)[O-]	inactive: -24.5%	–
S=C(NCc1ccco1)N1CCN(c2ccccn2)CC1	inactive: -8.01%	–
CCc1ccc2oc(C(=O)NCC(c3ccc(Cl)cc3)N3CCOCC3)c(C)c2c1 (centres undefined)	inactive: -10.3%	–
O=C(NCc1cccnc1)c1ccccc1-c1nc(-c2ccccc2)no1	inactive: -23.1%	–
COc1ccc(/C=N/Nc2cc(N3CCOCC3)ncn2)c(OC)c1	inactive: -14.2%	–
CCCCNc1c2c3c(cccc3n(C)c1=O)C(=O)c1ccccc1-2	inactive: -28.4%	–
COc1cccc2c1cc1c(=O)n(CC(=O)N3CCCC3)nc(C)n12	inactive: -24.9%	–
Cc1ccccc1OCc1nc(-c2ccc(NC(=O)c3ccc4c(c3)OCO4)cc2)no1	inactive: 40.8%	–
CCC(C)NC(=O)Cn1cc(S(=O)(=O)N2CCCC2)c(S(=O)(=O)N2CCCC2)c1 (centres undefined)	inactive: 2.12%	–
CCOC(=O)C1=C(CN2CCCCC2)NC(=O)NC1c1cc(C)ccc1C (centres undefined)	inactive: -12.9%	–
CCOC(=O)N1CCC(NC(=O)c2sc3nc4n(c(=O)c3c2C)CCCC4)CC1	inactive: -4.83%	–
CC(C)C(NC(=O)CCNC(=O)c1ccc(C(C)(C)C)cc1)c1nc2ccccc2[nH]1 (centres undefined)	inactive: -19.4%	–
COc1ccc(OC)c(NC(=O)c2ccc(CN3CCc4ccccc4C3)cc2)c1	inactive: -17.3%	–
O=C1NCCCN1Cc1ccc(F)cc1Cl	inactive: -26.5%	–
CN1/C(=C\C(=O)c2cccs2)C(C)(C)c2ccccc21	inactive: -14.4%	–
CC1CC(C)CN(S(=O)(=O)c2ccc(NC(=O)CN3C(=O)NC(C)(c4ccccc4)C3=O)cc2)C1 (centres undefined)	inactive: -6.37%	–
CCOc1ccc(NC(=O)Cc2c(C(=O)O)n(C)c3ccccc23)cc1	inactive: -27.2%	–
COc1cccc(CC2(CO)CCN(S(=O)(=O)N(C)C)CC2)c1	inactive: -7%	–
CCOCCCNCC(=O)Nc1ccc(S(=O)(=O)NC(C)CC)cc1 (centres undefined)	inactive: -10.7%	–
Cc1cc2nc(-c3ccc[nH]c3=O)n(Cc3ccccc3F)c2cc1C	inactive: -17.8%	–
O=C(O)CN1C(=O)C(=O)N(Cc2ccc(C(F)(F)F)cc2)C1=O	inactive: -2.71%	–
CCc1cccc(CC)c1-n1c(-c2cccnc2)n[nH]c1=S	inactive: -20%	–

SMILES	activity change, negative = inhibition	Potency
CC(C)C1NC(=S)N(Cc2ccccc2)C1=O (centres undefined)	inactive: -29%	–
Cc1ccc(S(=O)(=O)N(CC(=O)NCc2cccnc2)c2ccc(F)cc2)cc1	inactive: -10.8%	–
CCOc1ccc(/C=C2\SC(=S)N(C)C2=O)cc1OC	inactive: -19.3%	–
COc1ccc(C(=O)Nc2ccnn2C2CCN(Cc3cn(C)nc3C)CC2)cc1	inactive: -5.15%	–
CC(C)NS(=O)(=O)c1ccc(CCC(=O)NCc2ccncc2)cc1	inactive: -24.6%	–
O=C(NC(=S)NNS(=O)(=O)c1ccc(Cl)cc1)c1cccnc1	inactive: 0.106%	–
O=C(NCc1cccc(Cl)c1)c1ccncc1	inactive: -9.66%	–
Cc1ccc(C2=NN(CC(=O)NCCN(C)C)C(=O)CC2)cc1	inactive: -25.4%	–
CN(C)c1ccc2c(c1)C(=NO)c1ccccc1-2	–	active: 70.8 µM
CCOc1cc(CNc2ccc(O)cc2)ccc1OCc1ccc(Cl)cc1	inactive: -8.49%	–
Cn1c(Cl)cnc1C1CC(=O)c2cc(Cl)ccc2O1 (centres undefined)	inactive: -20.8%	–
CCCc1c(OCCCCc2nn[nH]n2)ccc(C(C)=O)c1O	inactive: -7.64%	–
OC(CNc1ncnc2sccc12)c1ccccc1 (centres undefined)	inactive: -4.08%	–
OCCN1CCN(CCCN2c3ccccc3Sc3ccc(Cl)cc32)CC1	inactive: -8.81%	–
CCOC(=O)COc1ccccc1/C=N/O	inactive: -4.3%	–
COc1ccccc1N1CCN(C(=O)CSc2nc(C)c(Cc3ccccc3)c(=O)[nH]2)CC1	inactive: -4.99%	–
CCOC(=O)c1ccc(-c2ccc(/C=C(\C#N)C(=O)Nc3cccc(C)c3)o2)cc1	inactive: -11%	–
Nc1cc(-c2nn[nH]n2)ccc1F	inactive: -14.6%	–
CC(C)(C)SC(=O)CC1NS(=O)(=O)OC2CCCCC12 (centres undefined)	inactive: -25.9%	–
COc1ccc(C(=S)N2CCN(c3ccccc3C)CC2)cc1OC	inactive: -3.82%	–
CCOC(=O)NC(=S)Nc1ccc(C(C)(C)C)cc1Br	inactive: -30.9%	–
CCN(CC(=O)Nc1ccc(N2CCOCC2)cc1)CC(=O)NC(C)(C)C	inactive: 9.44%	–
COCc1cc(C)nc(SCC(=O)Nc2ccc3c(c2)OCCO3)c1C#N	inactive: -3.29%	–
